## Library screen at single concentrations

The chains behind the UniProt entries cited, without tags or fusion partners.
UniProt P9WFT3, whole entry: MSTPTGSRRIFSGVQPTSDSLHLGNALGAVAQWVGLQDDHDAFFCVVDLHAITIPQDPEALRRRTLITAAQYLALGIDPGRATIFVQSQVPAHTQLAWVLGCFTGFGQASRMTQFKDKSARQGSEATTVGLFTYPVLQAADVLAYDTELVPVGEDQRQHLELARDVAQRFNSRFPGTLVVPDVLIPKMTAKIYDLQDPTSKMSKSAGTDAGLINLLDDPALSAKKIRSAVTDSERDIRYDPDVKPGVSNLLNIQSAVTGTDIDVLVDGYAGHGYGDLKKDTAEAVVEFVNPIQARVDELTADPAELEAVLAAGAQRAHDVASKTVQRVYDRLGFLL

Data taken from ChEMBL document CHEMBL3988442, “University of Dundee, Small-Polar-MMV Screening Library” (2021).

Values are the deposited “Percent Effect”, in %. How 0% and 100% were set is not recorded. Most values in the screen are low, and negative values occur. This is an unselected part of the compounds tested.

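Enzyme assay of tryptophanyl-tRNA synthetase; the read-out is not stated. Target: Tryptophan-tRNA ligase, Mycobacterium tuberculosis (UniProt P9WFT3). Concentration: 10 µM. Higher most likely means stronger inhibition; the record gives no direction and few retests gave an IC50. About 65,000 compounds were tested under these conditions; 0.098% (about 64) showed 50% or more at least once.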

| structure | Percent Effect |
|---|---|
| `CCCOc1ccc(C2SCC(=O)Nc3c2c(=O)[nH]n3C(C)C)cc1` (stereo not given) | -0.9507 |
| `Cc1cnn(CCNCCCOc2ccc(C#N)cc2)c1` | -1.87 |
| `CCc1ocnc1C(=O)N1CCOC(CCCC(C)C)C1` (stereo not given) | 4.083 |
| `CCc1c(C)n(CC(C)=O)c2nc3ccccc3n2c1=O` | -1.232 |
| `CC(C)(C(=O)NCC(N)=O)c1ccccc1F` | -4.36 |
| `Cc1cc(NCCC(=O)NC(C)C)nc(-c2ccncc2)n1` | 2.151 |
| `Cc1cc(N2CCN3CCCCC3C2)n2nc(C)c(C)c2n1` (stereo not given) | -0.3791 |
| `CC(C)C1CN(C(=O)c2cccs2)CCS1` (stereo not given) | -0.2863 |
| `Cc1ccc(-n2ncc(C(=O)NCC3CCS(=O)(=O)C3)c2C)cc1` (stereo not given) | -3.504 |
| `CCN(CC)C(=O)Cn1ccc2cc(NC(=O)C3CCCCC3)ccc21` | 8.349 |
| `Cc1ccc(CNC(=O)NCC(=O)NC(C)(C)C)c(N2CCCC2)c1` | -6.116 |
| `Cc1ccccc1-c1cncc(C2CCN(C(C)C)CC2)n1` | -0.25 |
| `Cn1nc(Br)c2c(NCCNc3ncccn3)ncnc21` | 3.797 |
| `COC(=O)NCC(=O)N(C)Cc1csc(-c2cccs2)n1` | 4.567 |
| `CCN(Cc1nccn1C)C(=O)c1ccc(NCc2cnn(C)c2)nc1` | 3.907 |
| `CC(C)C(=O)N1CCC12CCCN(C(=O)c1ccnnc1)C2` (stereo not given) | -3.246 |
| `Cc1cc(NC(=O)CN(CC2CCOC2)C2CC2)no1` (stereo not given) | -1.609 |
| `Cc1cc(C)n(CC2CN(Cc3cccc(C(N)=O)c3)CCO2)n1` (stereo not given) | 10.69 |
| `COc1c(-c2ccc(O)cc2)oc2cc(O)cc(O)c2c1=O` | 0.9789 |
| `CC(=O)c1c(C)nn(S(=O)(=O)c2ccc(Cl)cc2)c1C` | 0.2154 |
| `Cc1nc(NCCc2ccc(Cl)cc2)cc(C(=O)N2CCOCC2)n1` | -1.408 |
| `CCc1nnc(SCc2cc(=O)n3c4c(sc3n2)CCCC4)[nH]1` | 1.555 |
| `CC(C)C(NC(=O)c1ccco1)C(=O)N1CCC2(CC1)OCCO2` (stereo not given) | -2.383 |
| `CC(C)(NCC(=O)NC(=O)NC1CC1)c1ccc2c(c1)OCO2` | -1.573 |
| `Cc1noc(C[C@@H]2COC[C@H]3CN(C(=O)C4=CCCC4)C[C@@H]23)n1` | -0.6783 |
| `COC(=O)c1sc2cccc(F)c2c1CNC(=O)C1CCCO1` (stereo not given) | -3.039 |
| `CCn1cc(CN2CCN(C(=O)c3cc(C)c(C)s3)CC2)c(C)n1` | -1.583 |
| `CC(C)NC(=O)N1CCC2(CC(=O)N(c3cccc(F)c3)C2)C1` (stereo not given) | -2.092 |
| `COCc1cncc2c1CCN(Cc1cccs1)C2` | -5.638 |
| `COC[C@]12COC[C@H]1CN(Cc1ccc3ccccc3n1)C2` | -5.23 |
| `COCCN(CCOC)c1ncc(C#N)cc1Cl` | -7.72 |
| `COc1ccc(CNCc2ccnc(N3CCOCC3)c2)cc1OC` | -2.598 |
| `Cc1ccc(N[C@@H]2CN(Cc3cc(C)on3)C[C@@H]3CCCO[C@@H]32)nn1` | 0.6352 |
| `Cc1ccc(-c2nn(-c3cccc(F)c3)cc2CN(C)CCO)o1` | -4.845 |
| `CSc1ccc(C(=O)N2C[C@H]3CC[C@@H]2CN(Cc2cccnc2)C3)cc1` | -5.332 |
| `COCC(=O)N1CCC(c2cc(-c3ccc(OC)cc3)n[nH]2)C1` (stereo not given) | -5.355 |
| `Cc1ccc(CN2CCC3(CC2)C(=O)NCCN3CC2CC2)o1` | -3.743 |
| `Cc1cc(C(=O)NCc2ccnc(OCC(F)(F)F)c2)no1` | -3.578 |
| `CCc1ccc(C(C)NC(=O)CN(C)Cc2ccc(C)o2)cc1` (stereo not given) | -4.617 |
| `O=C(c1cnccn1)N1CCN(Cc2cccnc2)c2ncccc2C1` | -5.585 |
| `O=C(C1CCCC1)N1CCN(Cc2ccncc2)[C@@H]2CS(=O)(=O)C[C@@H]21` | -3.293 |
| `Cc1ccc(-c2nc3c([nH]2)CCNC3C(=O)O)c2cccnc12` (stereo not given) | -4.446 |
| `CN(C(=O)C1CCCC1)C(c1cccc(F)c1)c1ccccn1` (stereo not given) | 31.62 |
| `O=c1c(CN2CCOCC2)coc(O)c1CN1CCOCC1` | 0.8039 |
| `O=C(c1ccoc1)N1CC[C@@H]2O[C@H](COCc3ccccn3)CC[C@@H]21` | -2.528 |
| `CN1CC[C@@H]2[C@@H]1CCN2Cc1ccc2c(c1)OCO2` | -6.225 |
| `CCn1nc(CC(C)C)cc1C(=O)NCCCOC` | -4.171 |
| `CCOc1ncccc1C(=O)N1CCC(Nc2ccc(C)nn2)CC1` | -4.802 |
| `OC1(CN2CCC(Cc3ccccc3)CC2)CCC1` | 1.11 |
| `CC(C)(C)c1noc(-c2ccnc(-n3cnc(C(=O)O)c3)c2)n1` | 0.9238 |
| `O=C(O)[C@@]12CN(c3cnccn3)C[C@@H]1CN(C1CCCC1)C2` | -1.286 |
| `COc1ccc2ccccc2c1CNCC1CCS(=O)(=O)C1` (stereo not given) | -0.4244 |
| `CN(C)CC1CN(Cc2cc(Cl)cc3cccnc23)CCO1` (stereo not given) | 4.541 |
| `Cc1nc(CN2C[C@@H]3CN(C(=O)c4cnccn4)C[C@@H]3C2=O)cs1` | -4.362 |
| `Cc1nc[nH]c1CN(Cc1ccccc1F)C1CC(C)(C)NC(C)(C)C1` | -6.771 |
| `CC(=O)c1cccc(NC(=O)C2CN(S(=O)(=O)C3CC3)C2)c1` | -2.508 |
| `O=C(c1ccc(O)cc1)N1C[C@@H]2CCN(c3cccnc3)C[C@@H]2C1` | 7.819 |
| `CC(NC(N)=O)C(=O)Nc1ccc(OCc2cccc(F)c2)c(F)c1` (stereo not given) | -2.23 |
| `CC(=O)Nc1nc(CN2CCOC(Cn3cccn3)C2)cs1` (stereo not given) | 2.257 |
| `COc1cccc2cc(CNC(=O)N3CCOC(C)(C)C3)oc12` | 17.99 |
| `CCn1cc(CN(C)S(=O)(=O)c2cnn(CC)c2C)c(C)n1` | 3.917 |
| `CN(C)c1ccc(C(=O)N2CCC(c3cc4ncccc4[nH]3)CC2)cc1` | -6.332 |
| `c1cncc(CNCCc2cccs2)c1` | -2.055 |
| `CC(c1cccc(S(N)(=O)=O)c1)N(C)CCOc1ccccc1` (stereo not given) | -3.888 |
| `Cc1oc(C)c(C(=O)NCc2ccccc2CN(C)C)c1C` | 15.08 |
| `c1ccc(-c2nnn3c2COC(CNCc2ccccn2)C3)cc1` (stereo not given) | 4.299 |
| `Cc1ccc(-c2cnnc(NCC3(N4CCOCC4)CCCC3)n2)o1` | 9.139 |
| `Cn1cc(Br)cc(NC(=O)CC2CCC2)c1=O` | 3.396 |
| `CNC(=O)CN1CCCC12CCN(C(=O)c1ccoc1)CC2` | -1.89 |
| `CN(C)CC(=O)N1CCC2(CCc3ccc(-c4ccncc4)cc32)CC1` | 2.05 |
| `O=C(Nc1ccc(N2CCOCC2)nc1)N1CCc2sccc2C1` | -3.835 |
| `CC(C)(C)c1nc(CN2CCOC(Cn3cncn3)C2)cs1` (stereo not given) | 9.464 |
| `CC(C)CS(=O)(=O)N1CCC2(CN(c3ccsc3)C(=O)CN2C)C1` (stereo not given) | 0.5141 |
| `CN(C)C(CNC(=O)NCCS(C)(=O)=O)c1ccco1` (stereo not given) | 3.725 |
| `CSc1ccc(-c2nc(CN3CCC(NC(C)=O)C3)c(C)o2)cc1` (stereo not given) | -1.316 |
| `CCN(c1ccccc1)S(=O)(=O)c1cc(C(=O)O)cc2c1CCC2` | 9.494 |
| `CN(c1ccncn1)C1CC2(CCN(C(=O)CCc3cccs3)C2)C1` (stereo not given) | -0.7525 |
| `COCC(=O)N1CC[C@@H]2CN(Cc3ccccc3)S(=O)(=O)[C@@H]2CC1` | 0 |
| `Cc1ncc(CNC(=O)c2oc3ccccc3c2CN(C)C)s1` | -0.08842 |
| `COCCCC1(CO)CCCN(Cc2cccc(C#N)c2)C1` (stereo not given) | -1.212 |
| `Cc1ccc2cnn(CCC(=O)NCc3c(C)nn(C)c3C)c2c1` | 1.74 |
| `O=C1[C@H]2CN(CC3CC3)C[C@H]2CN1c1ccsc1` | 0.2615 |
| `CCCS(=O)(=O)N1CCC2(CC1)CN(c1ccccn1)CCO2` | 3.417 |
| `CC(c1nc(C2CC2)no1)N1CCN(Cc2cccc(C#N)c2)CC1` (stereo not given) | 2.301 |
| `CCc1ccc(CNC(=O)CCNS(=O)(=O)c2cn(C)c(C)n2)s1` | -0.7261 |
| `Cn1cc(CCCN2CCCC(c3cc(C(F)(F)F)[nH]n3)C2)cn1` (stereo not given) | -0.08937 |
| `Cc1ccc(NC(=O)[C@H]2C[C@H](C(=O)O)CN(CC3CC3)C2)cn1` | -5.951 |
| `O=C(NC[C@H]1OC[C@@H](N(CC2CC2)CC2CC2)[C@@H]1O)Nc1ccccc1` | 1.29 |

Once more, the final 9:

- COCCCC1(CO)CCCN(Cc2cccc(C#N)c2)C1 (stereo not given) | -1.212%
- Cc1ccc2cnn(CCC(=O)NCc3c(C)nn(C)c3C)c2c1 | 1.74%
- O=C1[C@H]2CN(CC3CC3)C[C@H]2CN1c1ccsc1 | 0.2615%
- CCCS(=O)(=O)N1CCC2(CC1)CN(c1ccccn1)CCO2 | 3.417%
- CC(c1nc(C2CC2)no1)N1CCN(Cc2cccc(C#N)c2)CC1 (stereo not given) | 2.301%
- CCc1ccc(CNC(=O)CCNS(=O)(=O)c2cn(C)c(C)n2)s1 | -0.7261%
- Cn1cc(CCCN2CCCC(c3cc(C(F)(F)F)[nH]n3)C2)cn1 (stereo not given) | -0.08937%
- Cc1ccc(NC(=O)[C@H]2C[C@H](C(=O)O)CN(CC3CC3)C2)cn1 | -5.951%
- O=C(NC[C@H]1OC[C@@H](N(CC2CC2)CC2CC2)[C@@H]1O)Nc1ccccc1 | 1.29%